According to US20260201023A1:
No constants are given. Whether binding was seen depends on the method and setting. Some results given as binding are weak or reduced against the parent protein; the word gives no strength.

Tests used:
[1] = target: T1, very short MTBR-tau243 fragments (human); assay: immunoprecipitation from CSF, LC/MS
T1 sequence (peptide): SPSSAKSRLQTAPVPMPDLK

[2] = target: T1, very short MTBR-tau243 fragments (human); assay: second immunoprecipitation step from CSF, LC/MS

- binding [1]: binds
- binding [2]: binds
B1: HJ32.11 (antibody, V domains shown)
VH: EVQLQQSGAELVKPGASVRLSCTGSGLNIKDYFIHWVKQRTKQGLEWIGRIDPEDDEIKYAPKFQGKATITADTSSNTAYLHLISLTSEDTAVYYCGWDFNYWGQGTTLTVSS
VL: DVLMTQTPLSLPVSLGDQVSISCRSSQSIVHSNGNTYLEWYLQKPGQSPKLLIYKVSNRFSGVPDRFSGSGSGTDFTLKISRVEAEDLGVYYCFQGLHVPYTFGGGTKLEI
